These are literature values, as cited in patent US7534768B2, “Treatment of DNA viral infections” (Henderson Morely Research and Development Ltd., priority 2000, dated 2009).

The data set deals with plasma proteins, mainly albumin. The following applies: cited from earlier work.

On to `NS(=O)(=O)c1cc(C(=O)O)c(NCc2ccco2)cc1Cl` [frusemide, 4-chloro-N-furfuryl-5-sulfamoylanthranilic acid], for which the unbound fraction (at therapeutic concentrations) is recorded as 2.3-4.1%. Also, the “bound to plasma proteins” value (plasma concentrations ranging from 1 to 400 mcg/ml, healthy individuals) is listed as 91-99%.
